{"sequences": {"note": "Sequences of proteins named here, by UniProt entry; tags and fusion partners are left off.", "UniProt Q96PZ2": "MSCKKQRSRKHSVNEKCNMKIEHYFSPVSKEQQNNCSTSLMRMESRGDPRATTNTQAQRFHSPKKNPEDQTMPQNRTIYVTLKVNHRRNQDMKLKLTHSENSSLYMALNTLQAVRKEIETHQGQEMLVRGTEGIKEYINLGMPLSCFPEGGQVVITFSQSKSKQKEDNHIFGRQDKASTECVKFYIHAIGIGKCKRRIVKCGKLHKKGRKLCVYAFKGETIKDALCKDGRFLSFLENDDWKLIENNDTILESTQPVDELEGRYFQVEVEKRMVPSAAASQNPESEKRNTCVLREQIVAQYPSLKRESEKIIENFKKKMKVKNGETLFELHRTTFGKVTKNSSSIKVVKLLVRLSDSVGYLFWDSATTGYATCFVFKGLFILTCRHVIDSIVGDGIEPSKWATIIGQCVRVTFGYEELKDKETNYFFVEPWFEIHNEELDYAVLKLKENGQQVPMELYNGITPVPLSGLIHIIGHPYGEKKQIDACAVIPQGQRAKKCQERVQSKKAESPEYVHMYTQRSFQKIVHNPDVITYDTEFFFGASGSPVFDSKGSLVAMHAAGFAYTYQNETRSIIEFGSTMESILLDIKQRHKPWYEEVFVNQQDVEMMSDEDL"}, "source": "paper doi:10.1101/2020.03.16.993600", "molecular_target": "GFP-FAM111A WT (human) (UniProt Q96PZ2)", "assay": "affinity purification with mass spectrometry", "note": "These are yes or no findings as the source states them, for the method shown. Binding seen in cells or lysates may run through a third protein. A yes stands for co-enrichment or nearness to the bait. Other partners may have been found."}
{"binder": "FAM111B (endogenous) (enzyme, UniProt Q6SJ93 1-734) MNSMKTEENKSFSAMEDDQRTRPEVSKDTVMKQTHADTPVDHCLSGIRKCSSTFKLKSEVNKHETALEMQNPNLNNKECCFTFTLNGNSRKLDRSVFTAYGKPSESIYSALSANDYFSERIKNQFNKNIIVYEEKTIDGHINLGMPLKCLPSDSHFKITFGQRKSSKEDGHILRQCENPNMECILFHVVAIGRTRKKIVKINELHEKGSKLCIYALKGETIEGALCKDGRFRSDIGEFEWKLKEGHKKIYGKQSMVDEVSGKVLEMDISKKKALQQKDIHKKIKQNESATDEINHQSLIQSKKKVHKPKKDGETKDVEHSREQILPPQDLSHYIKDKTRQTIPRIRNYYFCSLPRKYRQINSQVRRRPHLGRRYAINLDVQKEAINLLKNYQTLNEAIMHQYPNFKEEAQWVRKYFREEQKRMNLSPAKQFNIYKKDFGKMTANSVSVATCEQLTYYSKSVGFMQWDNNGNTGNATCFVFNGGYIFTCRHVVHLMVGKNTHPSLWPDIISKCAKVTFTYTEFCPTPDNWFSIEPWLKVSNENLDYAILKLKENGNAFPPGLWRQISPQPSTGLIYLIGHPEGQIKKIDGCTVIPLNERLKKYPNDCQDGLVDLYDTTSNVYCMFTQRSFLSEVWNTHTLSYDTCFSDGSSGSPVFNASGKLVALHTFGLFYQRGFNVHALIEFGYSMDSILCDIKKTNESLYKSLNDEKLETYDEEKGKQESSLQDHQIEPMEC", "values": [{"measurement": "binding", "result": "binds"}]}
